# Laboratory results: patent publication US8318697B2, “Prophylactic and therapeutic treatment of infectious and other diseases with mono- and disaccharide-based compounds” (Corixa Corporation, priority 2000, dated 2012)
# Tested on: P. carinii
# Assay: Protection against P. carinii infection in anti-CD4 treated (immunocompromised) mice, lung impression smear score
# Type: in vivo
# Conditions: pulmonary delivery
# Description: Mice were pretreated with L3T4 anti-CD4 antibody for a minimum of 2 weeks (2 injections/week, 0.2 mg/injection) or until the peripheral CD4 count was reduced by at least about 50%.
# An aqueous formulation was prepared containing 1 mg/ml 3-O-deacylated monophosphoryl lipid A and 108 μg/ml of the surfactant DPPC in water. The formulation was administered intratracheally via a small cannula at −24 hours and then twice a week for the remainder of the study. The concentrations administered are indicated below in Table 1. One million P. carinii were inoculated trans-tracheally at day 0. Twice-weekly treatments were continued for 7 weeks, lungs were removed and impression smears made. Slides were stained with Giemsa and silver and scored for the presence of P. carinni as follows.
substance,measurement,value
3-O-deacylated monophosphoryl lipid A [MPL],FACS analysis of cells lavaged from the lungs,displayed markers for activated neutrophils but was unremarkable for an influx of leukocytes
